Among the data in the RNAGym collection of RNA variant scans (doi:10.1126/science.aae0568) are yeast fitness values, retold here.

B1: tRNA (parent)
chain: GUUCCGUUGGCGUAAUGGUAACGCGUCUCCCUCCUAAGGAGAAGACUGCGGGUUCGAGUCCCGUACGGAACG

Variants at the floor of the assay are shown more often than the library holds them.

Variants of B1 are the subject of the series. As to the kind of experiment: yeast fitness relative to wild type (ratio to wild type); higher = fitter; tRNA-Arg(CCU), competitive growth, 37 C, YPD. The procedure, abridged: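 Variants of the tRNA-Arg(CCU) gene were chemically synthesised with a 3% per-site mutation rate across 69 sites and placed at the native genomic locus in Saccharomyces cerevisiae. Six parallel replicates of the pooled strains were competed in YPD at 37°C for 24 hours, and gene amplicons from the start and end populations were read by 100-nucleotide paired-end sequencing. Darwinian fitness relative to wild type was derived from changes in genotype frequencies. Genotypes required ≥ 100 starting reads, and estimates < 0.5 were set to 0.5.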
In the case of G9A U16A C34A G50C, the yeast fitness is at most 0.5.
Consider C11A G17C C49A A65C, for which the yeast fitness is at most 0.5.
The figure for G10A C33U is 0.592; for C22G A42G U59C it is at most 0.5.
Take C4G U7G G12C A20U A70U: the yeast fitness was at most 0.5.
Consider C46A C49A G63A, for which the yeast fitness was at most 0.5.
As for A21C U26A C29G, the figure is at most 0.5; as for U16A C29G A43U A70U, at most 0.5.
For C46A G67C, the yeast fitness was determined as 0.896.
Turning to C4U C11A C29U A65U, the yeast fitness was at most 0.5.
The figure for A15U C30U A65U is at most 0.5.
Take C5U A14G G67A: the yeast fitness is 0.642.
The figure for A14G G23C A70U is 0.564; for C11A C31U G41C A43C C60G it is at most 0.5.
The figure for U47A C61U A70C is 0.558; for A21G G56U G58C it is 0.661; for U26C U53A G68C it is at most 0.5.
As to G6A A43G G48A C55G C60U, the yeast fitness was at most 0.5.
On to U13C A14U A21C A37G A70U, for which the yeast fitness is at most 0.5.
For the variant C5U A65C G68A, the yeast fitness was 0.681.
As for C27G A45C C49U G52A U59C, the figure is 0.6; as for C5G G9C G58C, at most 0.5.
As for C11U C31U G38C, the yeast fitness was at most 0.5.
On to C4U A42C A45G C66A, for which the yeast fitness is at most 0.5.
Take U8C U26G C33G U35A C62A: the yeast fitness is at most 0.5.
The figure for C4G A21G C24G C34A G48C is at most 0.5; for C11A A57U U59C it is at most 0.5; for C11G C34U C66G it is at most 0.5.
For the variant C31U C60G A70G, the yeast fitness stood at 0.675.
The figure for A45U U54C C55G is at most 0.5; for A21C A45C C49U A69U it is at most 0.5.
Take C4A G23C C27G U35G C62A: the yeast fitness was at most 0.5.
Turning to C29G C33U C34U G56C C66A, the yeast fitness was at most 0.5.
The figure for G6A G9C A15G C49U is at most 0.5.
On to C5G U28G G44C G48C, for which the yeast fitness was at most 0.5.
As for G6C G56C A70C, the figure is at most 0.5.
For A15C U47A A65C, the yeast fitness was 0.561.
As for C27U C33G A57G, the figure is at most 0.5; as for U2A G23C C55U, at most 0.5; as for G23A C33G C46G, at most 0.5.
Regarding C22G U35C G48A A57C, the yeast fitness is at most 0.5.
Consider C4A C22U U54A, for which the yeast fitness was 0.685.
With U19G A37G U47A C66U A69U, the yeast fitness is at most 0.5.
Consider A15U G18C G41A A69C A70G, for which the yeast fitness is at most 0.5.
The figure for A14C A20U G25C A43C C66U is at most 0.5; for G39A A42G C66U it is at most 0.5; for U16G A36U it is 0.589.
Regarding C5U G41C A43U G67U, the yeast fitness is at most 0.5.
Regarding G10A A15U A36G U47G A65U, the yeast fitness is at most 0.5.
Turning to U7C G23A G39C A70G, the yeast fitness was at most 0.5.
As for C33A A43C A65U, the yeast fitness is at most 0.5.
Turning to U16G A21C A43U, the yeast fitness was at most 0.5.
For the variant A14C C33A G48A, the yeast fitness was at most 0.5.
Take C11U A20U G38A C61U A69U: the yeast fitness was at most 0.5.
G18A G44C A65C: the yeast fitness was at most 0.5.
As for C24G A40G U53A G68C, the figure is at most 0.5.
The figure for U3C A15U U32A C33G U53A is at most 0.5; for C4U U26C A36C U64A it is at most 0.5; for C4A C5U C22U C34A G68A it is at most 0.5.
The figure for U2A G67U is 0.824.
With U32G C46G, the yeast fitness turned out to be 0.757.
On to A21U U59A, for which the yeast fitness came to 0.587.
As for A14U A20C C24G C55U A69C, the yeast fitness is at most 0.5.
On to C31G A43U C46G U59G G67U, for which the yeast fitness was at most 0.5.
In the case of A14C C31A C55U U59C C62U, the yeast fitness was at most 0.5.
U47A G50A: the yeast fitness amounted to 0.831.
As for G18A C22U C30U C33U A45C, the figure is at most 0.5.
Regarding C31G C60U A69U, the yeast fitness is at most 0.5.
As for U3G C34G, the yeast fitness was at most 0.5.
With A14U C30G A40G C62U G63A, the yeast fitness is at most 0.5.
Turning to C5A C24A, the yeast fitness is 0.727.
As to C33U U59C A65C, the yeast fitness is at most 0.5.
Take G44A A57U C60G: the yeast fitness is at most 0.5.
Consider C49U G51A A69U, for which the yeast fitness came to 0.573.
As for C4U C33G A57G, the figure is at most 0.5; as for G38A C49U G51C, at most 0.5.
Take C46U C60U A65C: the yeast fitness worked out at 0.589.
As for A15G U35G A43G A45G C66U, the figure is at most 0.5.
In the case of C4U U26G C62U, the yeast fitness is at most 0.5.
For U13A A14U C24G U28G C31U A45C, the yeast fitness is at most 0.5.
On to A36G A37U A69C, for which the yeast fitness was 0.663.
The figure for U3A U7C U19A C27A is at most 0.5; for G10A A37G A42C it is at most 0.5.
Regarding G10A G17A A45U U47A, the yeast fitness was at most 0.5.
As to A15U A20C C27U, the yeast fitness was determined as 0.748.
As for C4G A36G, the figure is 0.939; as for C33A A43G A45C C60U C62A, at most 0.5; as for U19C U32C, 0.926.
For the variant A43U U64C, the yeast fitness is 1.02.
As for C5U U13A C27G A57C G67A A69U, the figure is at most 0.5; as for A40U G44C U53G C62U, at most 0.5.
As for C22A U28C C60A, the yeast fitness was at most 0.5.
Turning to C29A A69C, the yeast fitness came to 0.679.
U3C A45U G50A A57C: the yeast fitness was at most 0.5.
Take A15G G25A A57U A65U: the yeast fitness is at most 0.5.
For U7C C31G G41A G52C C60U C62G C66G, the yeast fitness was at most 0.5.
A43G G44A G56C C62U: the yeast fitness was at most 0.5.
For A14U G17C C24A C30G C66U, the yeast fitness was at most 0.5.
With C11U C46G C61U, the yeast fitness turned out to be 0.596.
On to U3C G9A A15U G68A, for which the yeast fitness was at most 0.5.
Turning to U2G A20U A43U G63A, the yeast fitness is at most 0.5.
On to C4U U7A A57C, for which the yeast fitness was at most 0.5.
As for A14C C31U A69U, the figure is at most 0.5; as for C30A G39A, 0.833; as for C22U C29A C30G A45U C66A, at most 0.5.
Take U13C C22A A42G C49U: the yeast fitness is at most 0.5.
Consider U2A U13G A40C G41C G68C, for which the yeast fitness is at most 0.5.
As for U8G A43C C60G A65C, the figure is at most 0.5; as for U13C U54A C60U, at most 0.5.
As for U16G C60A, the figure is 0.606; as for C4A A36U A37C U47C G68C, at most 0.5.
The figure for U13A G18C A20C U35G A69U is at most 0.5.
Regarding C11U A14G A45U G63C, the yeast fitness was at most 0.5.
A14U C29G A37C A42U A57G G67A: the yeast fitness is at most 0.5.
As for G25C U53A A57U A65U, the yeast fitness was at most 0.5.
Consider U16A C33G C49A, for which the yeast fitness was determined as 0.537.
In the case of C4U A15C C30G G52A A65C, the yeast fitness was at most 0.5.
Consider C11A G41A U47A A65C, for which the yeast fitness was at most 0.5.
The figure for C29U A65C G67U is at most 0.5; for U26A C31U A57G it is 0.742.
Take U26A A40C U54A: the yeast fitness was at most 0.5.
The figure for C5A A20G C29A G51C G67C is at most 0.5.
The figure for U7A C34G G48C is at most 0.5; for U8C A36U it is 0.647.
As to A45U U59C, the yeast fitness was 0.897.
With U8A U16A C27G C33A, the yeast fitness is at most 0.5.
On to A20G C31G A36U A65U, for which the yeast fitness is at most 0.5.
As to A15U C33U C62G A69C, the yeast fitness was at most 0.5.
The figure for C11A U32A C33U U47A U59C is at most 0.5; for C4G G41C U47A A57G it is at most 0.5; for C11G G52C U54C A57U it is at most 0.5.
Regarding G12A G63C, the yeast fitness amounted to 0.704.
As for C31U U54A G56C, the figure is at most 0.5.
For the variant U8A G18C C24A U32C C49U G52C, the yeast fitness is at most 0.5.
In the case of G6C U8A C22U G58C, the yeast fitness is at most 0.5.
With C5G C27G C33U G56A A69U, the yeast fitness was 0.52.
For U13A G23A A37U C49A G52A, the yeast fitness is at most 0.5.
As for U2G A20G U26A A43G G44C U53C, the yeast fitness was at most 0.5.
G10A A36C A70C: the yeast fitness was at most 0.5.
Consider U26C A57U G68A, for which the yeast fitness is at most 0.5.
In the case of A20G G50A A70C, the yeast fitness is at most 0.5.
As for G12A C61U U64A A69G, the figure is at most 0.5; as for A20G G38A C60G A70C, at most 0.5.
As for G48C U59G, the yeast fitness came out at 0.722.
Consider U35A C60G G63A, for which the yeast fitness came to 0.503.
On to C4A U13A G18A A42G G52A C55G, for which the yeast fitness was at most 0.5.
Consider U28A C31A C34G A36C C55U G63A, for which the yeast fitness is at most 0.5.
As for C4U C33G C49A A69U, the yeast fitness was at most 0.5.
The figure for A14U G52A C66U is at most 0.5; for C11A G52C it is 0.596.
For A14C G38C G39C C61U, the yeast fitness is at most 0.5.
As for C5A G12A G18A A57G G68A, the figure is at most 0.5; as for C5U G18C A40G A43C U54A, 0.72; as for G12A A20G U28A C55A G56A A65G, at most 0.5.
Consider A15G G23A C31U, for which the yeast fitness was at most 0.5.
Consider G25C A57C C60A, for which the yeast fitness is at most 0.5.
On to C33A A42G C55G, for which the yeast fitness was at most 0.5.
On to C30A A42U C49U U59C A69C, for which the yeast fitness came to 0.557.
As for A21U U32A G56C C62U, the figure is at most 0.5.
G6A U16G A21G A40G A42U: the yeast fitness came to 0.535.
C30G C46A A70G: the yeast fitness worked out at 0.591.
C4G C30U A42U G50C G63C: the yeast fitness was at most 0.5.
Turning to U2A U26G C27G C33U G39C C49U, the yeast fitness was at most 0.5.
Take G17C: the yeast fitness was found to be 0.7.
G12C C27G A37G G58C: the yeast fitness is at most 0.5.
Turning to A45C U54A C55A, the yeast fitness was at most 0.5.
G56C C60A C62G: the yeast fitness was at most 0.5.
